In article PMC7036753, “Lipidated Analogs of the LL-37-Derived Peptide Fragment KR12—Structural Analysis, Surface-Active Properties and Antimicrobial Activity” (International Journal of Molecular Sciences, 2020):
“And” between values parts separate entries of the source, which are not always exact repeats. Identical values can stand only once. Peptide text beside a SMILES is read from it. * marks the point of attachment. Myristoyl = CCCCCCCCCCCCCC(=O)*; Octanoyl = CCCCCCCC(=O)*; Bz = O=C(c1ccccc1)*

Experiments:
[1] = tested on: human red blood cells (hRBCs); assay: Hemolysis assay; format: cell-based; details: MHC (hRBCs) over GM of MIC against S. aureus
Method: Then the stock RBCs solution was added up to a final volume of 100 μL with a 4% concentration of erythrocytes (v/v). The control wells for 0 and 100% hemolysis were also prepared. They consisted of RBCs suspended in PBS and 1% of Triton-X 100, respectively.

[2] = tested on: human keratinocytes (HaCaT); format: cell-based; details: IC50 (HaCaT) over GM of MIC against S. aureus
Method: The cytotoxicity of test compounds (IC50) was evaluated for human keratinocytes (HaCaT, ATCC) using classic MTT assay on 96-well plates. In this assay, a colorimetric determination of the cell metabolic activity was carried out. Specifically, the color intensity reflects the number of live cells that can be measured spectrophotometrically. […] A day after plating 500 cells per well, a series of concentrations (0.5–500 μg/mL) of the test compounds were added. Dimethyl sulfoxide (DMSO) was used as a control in cells at a final concentration of 1.0% (v/v), which was related to the maximal concentration of the solvent compounds used in the experiment. After 24 h of incubation with test compounds, a medium containing 1 mg/mL of MTT was added up to a final concentration of 0.5 mg/mL and subsequently incubated at 37 °C for 4 h. Then, the medium was aspirated and the formazan product was solubilized with DMSO. The background absorbance at 630 nm was subtracted from that at 570 nm for each well (Epoch, BioTek Instruments, Winooski, VT, USA). Six replicates were conducted for each concentration. All experiments were repeated at least twice and the resulting IC50 values were calculated with a GraFit 7 software (v. 7.0, Erithacus, Berkley, CA, USA).

| Structure (SMILES) | Selectivity Index (SI) MHC/GM [1] | Selectivity Index (SI) IC50/GM [2] |
| --- | --- | --- |
| CCCCCCCC(=O)N[C@@H](CCCCN)C(=O)N[C@@H](CCCNC(=N)N)C(=O)N[C@H](C(=O)N[C@H](C(=O)N[C@@H](CCC(N)=O)C(=O)N[C@@H](CCCNC(=N)N)C(=O)N[C@H](C(=O)N[C@@H](CCCCN)C(=O)N[C@@H](CC(=O)O)C(=O)N[C@@H](Cc1ccccc1)C(=O)N[C@@H](CC(C)C)C(=O)N[C@@H](CCCNC(=N)N)C(N)=O)[C@@H](C)CC)C(C)C)[C@@H](C)CC [IV, C8-KR12-NH2] (Octanoyl-KRIVQRIKDFLR-NH2) | ~28 and 27.83 | 1.41 |
| CCCCCCCCCCCCCC(=O)N[C@@H](CCCCN)C(=O)N[C@@H](CCCNC(=N)N)C(=O)N[C@H](C(=O)N[C@H](C(=O)N[C@@H](CCC(N)=O)C(=O)N[C@@H](CCCNC(=N)N)C(=O)N[C@H](C(=O)N[C@@H](CCCCN)C(=O)N[C@@H](CC(=O)O)C(=O)N[C@@H](Cc1ccccc1)C(=O)N[C@@H](CC(C)C)C(=O)N[C@@H](CCCNC(=N)N)C(N)=O)[C@@H](C)CC)C(C)C)[C@@H](C)CC [VII, C14-KR12-NH2] (Myristoyl-KRIVQRIKDFLR-NH2) | 0.06 | 0.02 |
| CC[C@H](C)[C@H](NC(=O)[C@H](CCCNC(=N)N)NC(=O)[C@H](CCC(N)=O)NC(=O)[C@@H](NC(=O)[C@@H](NC(=O)[C@H](CCCNC(=N)N)NC(=O)[C@H](CCCCN)NC(=O)c1ccccc1)[C@@H](C)CC)C(C)C)C(=O)N[C@@H](CCCCN)C(=O)N[C@@H](CC(=O)O)C(=O)N[C@@H](Cc1ccccc1)C(=O)N[C@@H](CC(C)C)C(=O)N[C@@H](CCCNC(=N)N)C(N)=O [VIII, Benzoic acid-KR12-NH2] (Bz-KRIVQRIKDFLR-NH2) | – | 2.20 |
